The target in this data set is T1, λ-Redβ (bacteriophage lambda) (UniProt P03698).
T1 sequence (looked up, limits assumed): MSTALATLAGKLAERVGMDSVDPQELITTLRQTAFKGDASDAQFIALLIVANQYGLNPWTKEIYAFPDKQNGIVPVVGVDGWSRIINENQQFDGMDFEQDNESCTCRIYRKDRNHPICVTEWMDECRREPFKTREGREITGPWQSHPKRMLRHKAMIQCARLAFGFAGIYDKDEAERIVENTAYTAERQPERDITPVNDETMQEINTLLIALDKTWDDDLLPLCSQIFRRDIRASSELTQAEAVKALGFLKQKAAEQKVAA
Description: EMSA. Particulars: pre-annealed; EMSA: PBS pH 7.4 (or KH2PO4/10 mM MgCl2 pH 6.0), 3.6 or 5 uM protein, 25 uM nt DNA, 37 C 15 min per strand, 0.8% agarose 1x TBE; recombinant protein; label: 5'-Cy3,5'-Cy5. Background: In EMSA bound probe runs differently from free probe, usually more slowly.

For at least one entry, the source does not settle the construct or the ends of the probe. No signal at the amounts used counts as a negative. Protein sequences can lack the tags named with them.

As for “GCGGATGGCTTAGAGCAGAATCGCCCTGCATAGCTCGATTTTTGCGGATG / CCATCCGCAAAAATCGAGCTATGCAGGGCGATTCTGCTCTAAGCCATCCG [50-mer pre-annealed dsDNA]”, the binding result is “no binding”.

Values taken from PMC9772228, “Structure of a RecT/Redβ family recombinase in complex with a duplex intermediate of DNA annealing”.
